Experimental data taken from patent publication US10563263B2, “Genetic polymorphisms associated with statin response and cardiovascular diseases, methods of detection and uses thereof” (CELERA CORPORATION, priority 2010, dated 2020).
Further values from the same series stand in other lists.

Tested on: CHD
Assay: Meta-analysis of CARE and WOSCOPS combined, synergy index, CHD endpoint
Assay type: in vivo, human
Excerpt: Tables 4-5 provide meta-analyses of CARE and WOSCOPS combined (2nd section of each table) for two endpoints (CHD and CVD) and three genetic models (dominant, recessive, and additive), as well as logistic regression analyses of CARE (3rd section of each table) and WOSCOPS (4th section of each table) individually.
Tables 12 and 17 provide results of meta-analysis of the CARE and WOSCOPS sample sets combined by direct genotyping and by imputing genotypes.
“P” indicates the p-value, and “P(R)” (or “P.R.”) indicates the p-value random effect. Both of these are p-values corresponding to a statistical test of whether the combined synergy index is equal to one but use different assumptions to derive the p-value. “P” is calculated using a fixed effects model, and “P(R)” is calculated using a random effects model.
“OR” indicates the odds ratio (synergy index) calculated from a fixed effects model, and “OR(R)” (or “OR.R.”) indicates the odds ratio (synergy index) calculated from a random effects model.

[1] = rs2163046 allele A DOMINANT Imputed
[2] = rs2180286 allele G DOMINANT Imputed
[3] = rs2180684 allele A DOMINANT Imputed
[4] = rs2188079 allele C ADDITIVE Imputed
[5] = rs2188079 allele C GENOTYPIC Imputed
[6] = rs2190598 allele T DOMINANT Imputed
[7] = rs2190600 allele A DOMINANT Imputed
[8] = rs2224184 allele T DOMINANT Genotyped
[9] = rs2247066 allele A DOMINANT Imputed
[10] = rs2248236 allele C ADDITIVE Imputed
[11] = rs2248236 allele C DOMINANT Imputed
[12] = rs2265733 allele C ADDITIVE Imputed
[13] = rs2265733 allele C DOMINANT Imputed
[14] = rs2270584 allele A ADDITIVE Imputed
[15] = rs2270584 allele A DOMINANT Imputed
[16] = rs2270586 allele A ADDITIVE Imputed
[17] = rs2270586 allele A DOMINANT Imputed
[18] = rs2317057 allele T ADDITIVE Imputed
[19] = rs2322100 allele T RECESSIVE Genotyped
[20] = rs2322101 allele A RECESSIVE Imputed
[21] = rs2327929 allele G RECESSIVE Imputed
[22] = rs2332844 allele A ADDITIVE Imputed
[23] = rs2332844 allele A RECESSIVE Imputed
[24] = rs2349170 allele G DOMINANT Imputed
[25] = rs2356722 allele G DOMINANT Imputed
[26] = rs2364956 allele T ADDITIVE Imputed
[27] = rs2373793 allele G ADDITIVE Imputed
[28] = rs2373793 allele G DOMINANT Imputed
[29] = rs2383903 allele G DOMINANT Imputed
[30] = rs2387945 allele G DOMINANT Imputed
[31] = rs2389863 allele A DOMINANT Imputed
[32] = rs2389866 allele C DOMINANT Imputed
[33] = rs2389869 allele C DOMINANT Imputed
[34] = rs2389870 allele C DOMINANT Genotyped
[35] = rs2418494 allele G ADDITIVE Imputed
[36] = rs2418494 allele G GENOTYPIC Imputed
[37] = rs2418541 allele A DOMINANT Imputed
[38] = rs2418542 allele A DOMINANT Imputed
[39] = rs2423556 allele C DOMINANT Imputed
[40] = rs2437688 allele C ADDITIVE Imputed
[41] = rs2456809 allele G DOMINANT Imputed
[42] = rs2456811 allele T ADDITIVE Imputed
[43] = rs2456811 allele T DOMINANT Imputed
[44] = rs2476976 allele C DOMINANT Imputed
[45] = rs2484911 allele A DOMINANT Imputed

CC[C@H](C)C(=O)O[C@H]1C[C@H](O)C=C2C=C[C@H](C)[C@H](CC[C@@H](O)C[C@@H](O)CC(=O)O)[C@H]21 [Pravastatin, pravastatin] was tested, and the “OR(R)” value (rs2158961 allele G DOMINANT Imputed) was 0.6715, the OR [1] was 1.4873 and the “OR(R)” value [1] was 1.4873. The OR [2] was 0.6528, the “OR(R)” value [2] was 0.6528 and the OR [3] was 1.6598. The “OR(R)” value [3] was 1.6598, the “Meta-analysis OR” value (rs2184393, A1 (non-ref) G, A2 (ref) A) was 0.70 and the OR [4] was 1.3978. For the same compound, the “OR(R)” value [4] was 1.3978, the OR [5] was 2.0195 and the “OR(R)” value [5] was 2.0195. The OR [6] was 0.6712, the “OR(R)” value [6] was 0.6712 and the OR [7] was 0.6775. For the same compound, the “OR(R)” value [7] was 0.6775, the OR [8] was 0.6621 and the “OR(R)” value [8] was 0.6621. The “Meta-analysis OR” value (rs2231496 allele G vs A (ref)) was 0.72, the OR [9] was 0.6306 and the “OR(R)” value [9] was 0.6306. For the same compound, the OR [10] was 0.6815, the “OR(R)” value [10] was 0.6815 and the OR [11] was 0.619. For the same compound, the “OR(R)” value [11] was 0.619, the “Meta-analysis OR” value (rs2263901 allele G vs A (ref)) was 1.48 and the “Meta-analysis OR” value (rs2263920 allele G vs A (ref)) was 0.46. The “Meta-analysis OR” value (rs2265346 allele C vs A (ref)) was 0.54, the OR [12] was 0.6664 and the “OR(R)” value [12] was 0.6664. The OR [13] was 0.6016, the “OR(R)” value [13] was 0.6016 and the OR [14] was 0.7239. For the same compound, the “OR(R)” value [14] was 0.7239, the OR [15] was 0.5915 and the “OR(R)” value [15] was 0.5915. The OR [16] was 0.7243, the “OR(R)” value [16] was 0.7243 and the OR [17] was 0.5928. The “OR(R)” value [17] was 0.5928, the “Meta-analysis OR” value (rs2274473 allele G vs A (ref)) was 0.55 and the OR [18] was 0.7151. For the same compound, the “OR(R)” value [18] was 0.7151, the OR [19] was 2.0921 and the “OR(R)” value [19] was 2.0921. The OR [20] was 2.0923, the “OR(R)” value [20] was 2.0923 and the OR [21] was 1.7968. For the same compound, the “OR(R)” value [21] was 1.7968, the OR [22] was 1.7997 and the “OR(R)” value [22] was 1.7997. For the same compound, the OR [23] was 1.8396, the “OR(R)” value [23] was 1.8396 and the OR [24] was 1.5226. For the same compound, the “OR(R)” value [24] was 1.5226, the OR [25] was 0.6136 and the “OR(R)” value [25] was 0.6136. The OR [26] was 1.5326, the “OR(R)” value [26] was 1.5326 and the OR [27] was 1.4555. The “OR(R)” value [27] was 1.4555, the OR [28] was 1.5984 and the “OR(R)” value [28] was 1.5984. For the same compound, the OR [29] was 0.6336, the “OR(R)” value [29] was 0.6336 and the OR [30] was 1.4967. For the same compound, the “OR(R)” value [30] was 1.4967, the OR [31] was 0.6585 and the “OR(R)” value [31] was 0.6585. The OR [32] was 0.6536, the “OR(R)” value [32] was 0.6536 and the OR [33] was 0.6536. For the same compound, the “OR(R)” value [33] was 0.6536, the OR [34] was 0.6945 and the “OR(R)” value [34] was 0.6945. The OR [35] was 0.7772, the “OR(R)” value [35] was 0.7772 and the OR [36] was 0.5989. The “OR(R)” value [36] was 0.5989, the OR [37] was 0.6661 and the “OR(R)” value [37] was 0.6661. For the same compound, the OR [38] was 0.6679, the “OR(R)” value [38] was 0.6679 and the OR [39] was 0.6507. For the same compound, the “OR(R)” value [39] was 0.6507, the OR [40] was 1.4661 and the “OR(R)” value [40] was 1.4661. The OR [41] was 0.6286, the “OR(R)” value [41] was 0.6286 and the OR [42] was 0.6679. For the same compound, the “OR(R)” value [42] was 0.6679, the OR [43] was 0.6034 and the “OR(R)” value [43] was 0.6034. The OR [44] was 1.5277, the “OR(R)” value [44] was 1.5277 and the OR [45] was 1.5304. For the same compound, the “OR(R)” value [45] was 1.5304.
